In paper PMC4775073:
No constants are given. Whether binding was seen depends on the method and setting. In cells and extracts the contact can be indirect.

Sequences of proteins named here, by UniProt entry; tags and fusion partners are left off. A change or cut given only in a name is not applied to a line headed by its entry.
UniProt P30988: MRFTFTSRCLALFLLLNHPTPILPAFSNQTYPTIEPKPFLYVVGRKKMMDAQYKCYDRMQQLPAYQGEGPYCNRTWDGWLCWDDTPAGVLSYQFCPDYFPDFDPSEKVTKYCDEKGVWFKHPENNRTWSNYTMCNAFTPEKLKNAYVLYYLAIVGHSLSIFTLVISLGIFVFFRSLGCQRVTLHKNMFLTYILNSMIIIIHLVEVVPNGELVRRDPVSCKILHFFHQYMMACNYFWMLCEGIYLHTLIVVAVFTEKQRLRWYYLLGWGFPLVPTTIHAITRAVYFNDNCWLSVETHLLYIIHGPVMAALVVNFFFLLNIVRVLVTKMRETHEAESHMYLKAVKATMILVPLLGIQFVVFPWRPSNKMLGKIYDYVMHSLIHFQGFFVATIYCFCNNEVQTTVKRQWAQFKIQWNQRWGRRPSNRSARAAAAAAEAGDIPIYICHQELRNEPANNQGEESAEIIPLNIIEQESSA
UniProt Q07157: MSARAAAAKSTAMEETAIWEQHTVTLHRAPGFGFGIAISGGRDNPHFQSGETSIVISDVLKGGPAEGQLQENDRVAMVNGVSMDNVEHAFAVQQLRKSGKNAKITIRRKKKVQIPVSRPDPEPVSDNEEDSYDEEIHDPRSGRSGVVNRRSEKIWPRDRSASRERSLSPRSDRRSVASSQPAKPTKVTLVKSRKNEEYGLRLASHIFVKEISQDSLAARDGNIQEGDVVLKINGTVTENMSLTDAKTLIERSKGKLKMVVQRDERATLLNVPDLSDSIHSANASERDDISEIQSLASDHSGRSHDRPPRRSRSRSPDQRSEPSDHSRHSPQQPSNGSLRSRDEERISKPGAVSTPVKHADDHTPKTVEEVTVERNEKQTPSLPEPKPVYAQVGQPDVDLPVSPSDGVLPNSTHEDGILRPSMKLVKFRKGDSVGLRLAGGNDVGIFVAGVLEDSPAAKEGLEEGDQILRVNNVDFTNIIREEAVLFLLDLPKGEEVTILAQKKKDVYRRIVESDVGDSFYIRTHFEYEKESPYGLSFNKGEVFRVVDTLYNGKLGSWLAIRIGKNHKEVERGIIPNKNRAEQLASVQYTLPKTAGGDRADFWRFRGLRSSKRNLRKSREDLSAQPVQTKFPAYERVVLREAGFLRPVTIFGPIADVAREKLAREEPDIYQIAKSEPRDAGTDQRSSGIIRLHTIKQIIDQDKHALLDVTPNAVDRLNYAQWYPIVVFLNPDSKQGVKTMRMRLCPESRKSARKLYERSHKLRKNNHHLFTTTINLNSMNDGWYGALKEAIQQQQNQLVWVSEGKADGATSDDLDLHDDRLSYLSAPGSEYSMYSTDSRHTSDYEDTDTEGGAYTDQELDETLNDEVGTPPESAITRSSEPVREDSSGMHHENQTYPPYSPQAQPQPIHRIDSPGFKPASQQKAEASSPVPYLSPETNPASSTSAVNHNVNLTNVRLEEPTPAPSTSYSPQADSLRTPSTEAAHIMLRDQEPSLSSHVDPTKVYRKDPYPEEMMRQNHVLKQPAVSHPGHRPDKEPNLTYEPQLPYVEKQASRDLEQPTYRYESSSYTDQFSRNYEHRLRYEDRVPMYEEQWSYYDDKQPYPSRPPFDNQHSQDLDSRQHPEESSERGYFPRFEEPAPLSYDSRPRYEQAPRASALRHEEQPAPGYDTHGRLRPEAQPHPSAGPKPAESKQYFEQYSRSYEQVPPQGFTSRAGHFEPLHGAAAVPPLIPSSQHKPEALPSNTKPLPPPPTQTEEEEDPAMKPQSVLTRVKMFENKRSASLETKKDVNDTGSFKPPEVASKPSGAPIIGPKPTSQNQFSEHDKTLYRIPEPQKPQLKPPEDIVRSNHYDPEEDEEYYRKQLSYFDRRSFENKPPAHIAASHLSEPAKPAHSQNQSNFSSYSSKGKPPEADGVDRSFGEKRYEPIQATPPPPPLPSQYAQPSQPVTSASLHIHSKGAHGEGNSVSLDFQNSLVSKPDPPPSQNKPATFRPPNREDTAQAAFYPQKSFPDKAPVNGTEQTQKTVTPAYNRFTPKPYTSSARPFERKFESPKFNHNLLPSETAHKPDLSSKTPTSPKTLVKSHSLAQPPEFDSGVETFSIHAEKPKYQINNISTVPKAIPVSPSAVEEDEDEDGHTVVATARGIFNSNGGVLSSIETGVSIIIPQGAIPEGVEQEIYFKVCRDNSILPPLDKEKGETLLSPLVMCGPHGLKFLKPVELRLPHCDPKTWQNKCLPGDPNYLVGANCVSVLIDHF

Key:
[1] = biological target: FLAG-CTR∆ESS (full-length) (human) (UniProt P30988); assay: proximity ligation; in situ PLA (Duolink) on fixed PC cells (PC-3CTRwt, PC-3CTR∆ESS, LNCaP) with anti-ZO-1 and anti-CTR sera; with/without 50 nM CT for 30 seconds; dots per cell counted
[2] = biological target: GST-CTR-C∆ESS fusion protein (intracellular domain of CTR∆ESS, aa 441–476) (human) (UniProt P30988); assay: pull-down; GST fusion proteins (2 μg) on glutathione-Sepharose 4B incubated with PC-3 cell lysate for 6 h at 4 °C, eluted with 5 mM reduced glutathione; ZO-1 immunoblot; only the target purified
[3] = biological target: FLAG-CTR∆ESS (full-length) (human) (UniProt P30988); assay: co-IP; PC-31 (and PC-3) cells stably expressing FLAG-CTRwt or FLAG-CTR∆ESS, serum-starved, with/without CT (0.5–50 nM, 3 minutes); anti-FLAG EZ-view beads, eluted with FLAG peptide; ZO-1 immunoblot

Measured: binding

Zonula Occludens-1 (ZO-1), endogenous (from UniProt Q07157 1-1748)
no binding: all assays above
